Laboratory results from PubChem BioAssay AID256 (DTP/NCI, 2004).
The list is a part of this screen's results and no random one: it gathers tests that were run many times, whatever their T/C, doses with no T/C, and many T/C values between a quarter and a half above the control. Other doses and runs of a compound stand elsewhere. T/C gives the treated animals as a percentage of the vehicle group. Some doses have a count of surviving animals in place of a T/C: the source holds a T/C of zero for them, seemingly a mark for toxic or unscored doses. Some survivor counts are full or nearly so, which does not show that the dose was tolerated: survival well below the control is almost never listed, so the zero probably covers shortened survival too. Survivors were counted at the toxicity check, usually on the fifth day, unless a day is given; later deaths do not show. Schedule codes are those of the source, read here as Q, the interval in days (D) or hours (H), X, the number of doses.

Test system: CD2F1 mice, L1210 leukemia ip, survival T/C
Assay: NCI In Vivo Anticancer Drug Screen. Data for tumor model L1210 Leukemia (intraperitoneal) in CD2F1 (CDF1) mice
Conditions: higher T/C = longer survival
How it was run: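 Implant tumor; dose compound or vehicle; measure endpoint in both groups; report treated divided by control.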

[1] = T/C endpoint: mean survival time, dose: 200.0 mg/kg/injection, schedule: Q04DX002 (ip), vehicle: saline with Tween-80

CN(C)CCSCC(=O)N1c2ccccc2Sc2ccccc21
survivor count (T/C endpoint: mean survival time, dose: 200.0 mg/kg/injection, schedule: Q04DX003 (ip), vehicle: saline): 1 of 6 | survivor count (T/C endpoint: mean survival time, dose: 400.0 mg/kg/injection, schedule: Q04DX003 (ip), vehicle: saline): 0 of 6

CCN(CC)Cc1cc2[nH]c3c4ccc(Cl)cc4ncc3c2cc1OC
survivor count (T/C endpoint: median survival time, dose: 100.0 mg/kg/injection, schedule: Q01DX009 (ip), vehicle: saline with Tween-80): 1 of 6

C1CCC(C2CCCC[N-]2)[N-]C1.C1CCC(C2CCCC[N-]2)[N-]C1.[Cl][Ru][Cl] (configuration not stated)
survivor count (T/C endpoint: mean survival time, dose: 100.0 mg/kg/injection, schedule: Q04DX003 (ip), vehicle: distilled water + Tween-80): 0 of 6 | survivor count (T/C endpoint: mean survival time, dose: 200.0 mg/kg/injection, schedule: Q04DX003 (ip), vehicle: distilled water + Tween-80): 0 of 6

C[N+](C)(CC(=O)Nc1ccc(Cl)cc1)Cc1ccc2c(c1)CCCC2
survivor count (T/C endpoint: mean survival time, dose: 100.0 mg/kg/injection, schedule: Q01DX009 (ip), vehicle: saline with Tween-80): 0 of 6 | survivor count (T/C endpoint: mean survival time, dose: 100.0 mg/kg/injection, schedule: Q04DX002 (ip), vehicle: saline with Tween-80): 0 of 3 | survivor count (T/C endpoint: mean survival time, dose: 200.0 mg/kg/injection, schedule: Q01DX009 (ip), vehicle: saline with Tween-80): 0 of 6 | survivor count [1]: 0 of 3 | survivor count (T/C endpoint: mean survival time, dose: 400.0 mg/kg/injection, schedule: Q01DX009 (ip), vehicle: saline with Tween-80): 0 of 6 | survivor count (T/C endpoint: mean survival time, dose: 400.0 mg/kg/injection, schedule: Q04DX002 (ip), vehicle: saline with Tween-80): 0 of 3

CN(C)C(=O)Nc1nc2ccccc2s1
survivor count [1]: 3 of 3
